Consider two substances from article PMC7198626.

By UniProt entry, the sequences of proteins in these tests, tags left out. Where a name states a change or a piece, a line headed by the entry shows the natural chain unless it says otherwise. Chains listed by the source or under a name are the forms on record and can include a tag or linker.
sarcoplasmic/endoplasmic reticulum calcium-ATPase 2a (SERCA2a), Flag-tagged and HA-tagged copies (P16615-2, form named): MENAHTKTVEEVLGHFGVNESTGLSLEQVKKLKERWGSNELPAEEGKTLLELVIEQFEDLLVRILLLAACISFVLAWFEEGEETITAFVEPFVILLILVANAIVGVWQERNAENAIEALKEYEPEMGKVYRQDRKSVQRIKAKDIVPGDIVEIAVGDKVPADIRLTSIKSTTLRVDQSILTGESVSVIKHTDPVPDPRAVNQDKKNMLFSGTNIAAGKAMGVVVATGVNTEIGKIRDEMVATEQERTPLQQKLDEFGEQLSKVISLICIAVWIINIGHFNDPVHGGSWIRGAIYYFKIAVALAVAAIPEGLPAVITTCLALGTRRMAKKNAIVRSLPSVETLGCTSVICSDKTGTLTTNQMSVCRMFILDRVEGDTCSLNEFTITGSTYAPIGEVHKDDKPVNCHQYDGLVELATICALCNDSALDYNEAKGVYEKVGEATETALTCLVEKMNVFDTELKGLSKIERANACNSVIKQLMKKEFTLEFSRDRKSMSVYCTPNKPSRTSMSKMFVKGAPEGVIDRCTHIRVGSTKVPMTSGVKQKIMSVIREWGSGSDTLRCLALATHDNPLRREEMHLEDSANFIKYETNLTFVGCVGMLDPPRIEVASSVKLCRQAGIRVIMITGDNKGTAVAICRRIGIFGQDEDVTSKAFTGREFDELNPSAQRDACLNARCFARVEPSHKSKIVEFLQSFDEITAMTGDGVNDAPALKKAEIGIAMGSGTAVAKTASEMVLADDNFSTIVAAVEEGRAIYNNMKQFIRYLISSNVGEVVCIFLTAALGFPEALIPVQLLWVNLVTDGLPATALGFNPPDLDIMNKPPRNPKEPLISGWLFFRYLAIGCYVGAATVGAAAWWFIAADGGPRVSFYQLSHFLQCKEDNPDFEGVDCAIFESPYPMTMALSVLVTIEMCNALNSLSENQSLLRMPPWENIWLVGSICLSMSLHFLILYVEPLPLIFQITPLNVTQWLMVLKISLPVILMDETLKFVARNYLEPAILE

Experiment [1] concerns the target sarcoplasmic/endoplasmic reticulum calcium-ATPase 2a (SERCA2a), ECFP- and EYFP-fused copies (human) (UniProt P16615). Put plainly: FRET or BRET; ECFP-SERCA2a and EYFP-SERCA2a (1:1 molar ratio) in HEK293 cells together with empty vector, HA-SPEG WT, SPEG D3098A or SPEG 3A; sensitized emission FRET on a Leica SP5 confocal microscope. On the technique in general: In BRET a luciferase serves as donor, and the signal depends on an acceptor being close.

For experiment [2], the target named is sarcoplasmic/endoplasmic reticulum calcium-ATPase 2a (SERCA2a), Flag-tagged and HA-tagged copies (human) (UniProt P16615). Put plainly: western blot of high molecular weight (oligomeric) species; Flag-SERCA2a co-expressed with GFP or GFP-SPEG WT or mutant proteins in HEK293 cells; high molecular weight SERCA2a detected by western blot and quantified. On the technique in general: Immunoblotting shows a protein as a band on a membrane.

For experiment [3] the target is unchanged. The experiment in a line: co-IP; HA-SERCA2a co-expressed with Flag-SERCA2a in HEK293 cells together with GFP, GFP-SPEG WT, SPEG D3098A or SPEG 3A; Flag-SERCA2a immunoprecipitated, HA-SERCA2a detected by immunoblotting.

No constants are given. Whether binding was seen depends on the method and setting. For part of these data: Binding seen in cells or lysates may run through a third protein. Some entries that bind do so weakly or less than the wild type.

Consider “sarcoplasmic/endoplasmic reticulum calcium-ATPase 2a (SERCA2a), ECFP- and EYFP-fused copies (from UniProt P16615-2 1-997) (enzyme)”, for which, in experiment [1], the binding result is reported as “binds”. For the substance “sarcoplasmic/endoplasmic reticulum calcium-ATPase 2a (SERCA2a), Flag-tagged and HA-tagged copies (from UniProt P16615-2 1-997) (enzyme)”, the binding result in experiment [2] and in experiment [3] was “binds” each time.
